Test results reported in publication PMC3641059.
No constants are given. Whether binding was seen depends on the method and setting. Some binding calls cover weakened binding; strength is not graded here. Tags and fused reporters may be left off the sequences shown.

The chains behind the UniProt entries cited, without tags or fusion partners.
UniProt P19658: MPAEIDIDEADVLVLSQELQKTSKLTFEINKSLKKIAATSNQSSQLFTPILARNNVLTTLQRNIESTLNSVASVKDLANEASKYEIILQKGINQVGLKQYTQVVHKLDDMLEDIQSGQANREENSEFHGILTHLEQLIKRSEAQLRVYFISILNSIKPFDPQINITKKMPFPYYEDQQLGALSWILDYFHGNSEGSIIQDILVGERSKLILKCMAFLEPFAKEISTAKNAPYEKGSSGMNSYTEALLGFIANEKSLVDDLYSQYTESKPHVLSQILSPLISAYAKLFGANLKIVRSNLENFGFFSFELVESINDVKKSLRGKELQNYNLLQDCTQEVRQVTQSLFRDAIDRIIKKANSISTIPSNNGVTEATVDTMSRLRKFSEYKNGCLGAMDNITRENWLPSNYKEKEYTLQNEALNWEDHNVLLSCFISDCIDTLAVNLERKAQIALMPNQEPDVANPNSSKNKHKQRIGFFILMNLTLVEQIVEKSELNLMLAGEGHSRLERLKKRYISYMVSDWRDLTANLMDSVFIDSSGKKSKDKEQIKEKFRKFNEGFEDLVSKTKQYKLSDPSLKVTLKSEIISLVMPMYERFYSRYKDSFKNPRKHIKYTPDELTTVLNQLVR
UniProt P33332: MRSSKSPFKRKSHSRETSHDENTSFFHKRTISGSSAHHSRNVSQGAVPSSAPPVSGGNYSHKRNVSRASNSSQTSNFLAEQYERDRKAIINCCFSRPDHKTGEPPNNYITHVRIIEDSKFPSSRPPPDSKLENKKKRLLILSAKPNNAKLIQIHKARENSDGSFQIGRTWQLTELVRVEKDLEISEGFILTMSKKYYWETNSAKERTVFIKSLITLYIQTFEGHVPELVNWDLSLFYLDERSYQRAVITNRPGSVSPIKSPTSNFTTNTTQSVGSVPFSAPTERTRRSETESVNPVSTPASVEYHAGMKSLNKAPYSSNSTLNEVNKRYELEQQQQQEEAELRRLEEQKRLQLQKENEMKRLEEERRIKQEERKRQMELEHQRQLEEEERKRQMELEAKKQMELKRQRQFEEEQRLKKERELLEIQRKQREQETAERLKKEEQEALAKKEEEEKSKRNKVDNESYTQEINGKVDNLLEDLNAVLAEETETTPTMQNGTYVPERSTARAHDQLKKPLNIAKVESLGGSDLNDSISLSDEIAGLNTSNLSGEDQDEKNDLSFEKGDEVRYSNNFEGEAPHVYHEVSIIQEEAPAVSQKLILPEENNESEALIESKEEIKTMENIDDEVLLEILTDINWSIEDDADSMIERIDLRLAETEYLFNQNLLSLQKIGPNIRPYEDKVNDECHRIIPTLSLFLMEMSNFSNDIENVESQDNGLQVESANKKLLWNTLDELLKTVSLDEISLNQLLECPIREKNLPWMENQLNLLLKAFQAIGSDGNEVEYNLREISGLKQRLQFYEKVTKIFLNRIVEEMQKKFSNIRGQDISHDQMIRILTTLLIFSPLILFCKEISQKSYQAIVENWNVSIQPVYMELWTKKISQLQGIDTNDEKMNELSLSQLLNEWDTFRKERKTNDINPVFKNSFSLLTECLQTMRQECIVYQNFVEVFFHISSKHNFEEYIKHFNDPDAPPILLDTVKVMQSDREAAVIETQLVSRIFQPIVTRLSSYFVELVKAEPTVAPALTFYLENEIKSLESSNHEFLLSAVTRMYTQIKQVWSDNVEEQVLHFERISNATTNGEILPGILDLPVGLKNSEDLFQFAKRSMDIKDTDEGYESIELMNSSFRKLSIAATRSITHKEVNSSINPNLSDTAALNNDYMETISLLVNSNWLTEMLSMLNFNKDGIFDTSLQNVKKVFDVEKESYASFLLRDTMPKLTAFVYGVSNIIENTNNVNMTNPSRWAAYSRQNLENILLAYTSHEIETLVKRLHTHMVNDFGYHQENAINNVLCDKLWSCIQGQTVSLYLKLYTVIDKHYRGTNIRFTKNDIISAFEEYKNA
UniProt P38261: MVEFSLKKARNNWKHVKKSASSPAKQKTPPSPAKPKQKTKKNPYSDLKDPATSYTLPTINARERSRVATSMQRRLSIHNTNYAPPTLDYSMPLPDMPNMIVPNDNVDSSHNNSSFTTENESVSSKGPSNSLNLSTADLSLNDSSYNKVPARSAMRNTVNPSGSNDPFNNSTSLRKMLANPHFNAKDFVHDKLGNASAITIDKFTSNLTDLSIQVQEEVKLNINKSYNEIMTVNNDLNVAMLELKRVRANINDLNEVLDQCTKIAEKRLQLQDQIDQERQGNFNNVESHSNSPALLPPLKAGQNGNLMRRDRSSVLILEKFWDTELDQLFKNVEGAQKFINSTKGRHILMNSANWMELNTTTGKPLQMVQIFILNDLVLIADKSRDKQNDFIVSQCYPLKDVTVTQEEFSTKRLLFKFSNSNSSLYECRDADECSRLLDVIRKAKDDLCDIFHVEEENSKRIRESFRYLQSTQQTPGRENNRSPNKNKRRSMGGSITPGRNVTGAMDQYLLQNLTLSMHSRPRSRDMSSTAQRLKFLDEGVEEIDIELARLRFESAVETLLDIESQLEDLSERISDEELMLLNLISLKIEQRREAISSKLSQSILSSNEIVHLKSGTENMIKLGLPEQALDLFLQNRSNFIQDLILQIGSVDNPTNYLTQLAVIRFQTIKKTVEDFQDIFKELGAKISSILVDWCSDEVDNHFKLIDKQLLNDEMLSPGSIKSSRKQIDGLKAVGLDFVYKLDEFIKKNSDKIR

Each molecule was assayed against Exo70-FRB (S. cerevisiae) (UniProt P19658) (assay: automated PICT screen (co-translocation, automated live-cell imaging); living S. cerevisiae, anchor Pil1-RFP-FKBP, bait Exo70-FRB, 227 C-terminally GFP-tagged prey strains in 96 well plates; vehicle (DMSO) or 10 µM rapamycin for 15-60 min; nine fields of view; ratio of the area of colocalisation with and without rapamycin, one-tailed t-test (p<0.02), and visual inspection).

Row | Molecule | binding
1 | Sec3-GFP (from UniProt P33332 1-1336) | binds
2 | Exo84-GFP (from UniProt P38261 1-753) | binds
3 | Sec5-GFP (protein, UniProt P89102 1-971) MDRFQIGDEQLLRFYQLKTINPTHSWAQDSSKLNNEEATSNELGVETSFDILKDFKYGNQISIDKESRAYLNDESLSYIRDPLNGQEMSKELQHLPNDSMRLNYLVNSKQFNVKAFLRDMHKQDSFNDLNNSLDRLDSDIQDQSIHLKQLVGKNFTKYVKIKNKLDQIYKEFDEKTNEKNQCDSPKENQINVESLNKKVDEVIRTTTFKLKPLMDNYQKILNYQATKKFIELNKFYFNLPKSLKRCLTNNDFNEFIIEYSKGLTLRRRFNQSSDASQSLVIKRIWTQIENLLVTYKDLIWNSLINSNFNIDQPQETILSLFSKLLNLENFINNNQRESESGNKNTTSSSNENPILRWMSIKMNGFQNELNELSGHMISKIIHSQRLILQNNTNQDKSQGCVELSYYLKINQLFQIISDTGKDSEGLKSTVEPNKVNTISGTSYLNLNCQPSSQGLTDSPTIIEMWLLILKYINDLWKICDQFIEFWEHIEKFLDGTYQNSIINEKRKENILIGDSNIIESYQKSLILKEEQINEVRLKGEEFITSVSQNLISFFTSSQSSLPSSLKDSTGDITRSNKDSGSPLDYGFIPPNCNGLSCLRYLPKIVEPILKFSTELAQLNITTNGITICRNTLSTIINRCVGAISSTKLRDISNFYQLENWQVYETVTFSSKSQDSSKNLTFEYGVTQFPEIVTSFQEVSIKTTRDLLFAYEKLPIINGISVVSYPSKQLLTGIEIQQIISMEAVLEAILKNAAKDKDNPRNSHTILTLTNLQYFRECAFPNILQYFDDAFEWNLASKNLELFSLLSKMESSIFGNYLSDLKINLRDTLEEKFHEINWPMYTSNSFRVGDYIIEALMILIVVHSECFRIGPQLIHKILIETQIFIARYLFEAFKPYVGNLSNDGSLQIIVDLEFFQKVMGPLLEKDTEATLRACLQNCFQNDTNRLQKCINEINPIVSANLKRTAIQFAAFS | binds
4 | Sec8-GFP (protein, UniProt P32855 1-1065) MDYLKPAQKGRRRGLSINSLSETQQSAMNSSLDHLQNDLNRINLQWNRILSDNTNPLELALAFLDDTSVGLGHRYEEFNQLKSQIGSHLQDVVNEHSQVFNTNVASYGKAVSSIMQAQEQTLNLKNCLKEANEKITTDKGSLQELNDNNLKYTKMIDVLVNIEELLQIPEKIEENIRKENFHQVQILLERGFILMNNKSLKTVEILKPINQQLELQEHLLFNNLIEEIHDIMYSKSNKTNFTRVTNNDIFKIISISHNGFTSLENYLYNIVNIDIMEHSKTINKNLEQFIHDQSLNKGNIMLQENAATQAPLAPSRNQENEGFNRIGFLLKTINNINKLPVAFNIITERAKEEIHNIIVKSTESIRSKHPSLLKMATSLKNDNHFGLPVQDILSIILRECFWEIFLKLLYAIQCHRAIFEMSNILQPTSSAKPAFKFNKIWGKLLDEIELLLVRYINDPELISSNNGSIKPINGATNNAPTLPKRKNPKIFSLEYNIEDNSSVKDQAFELKALLKDIFPGFSVSSNMDLDSIYVKDESFEQDEPLVPPSVFNMKVILDPFLLFTQSTSTIVPSVLTQNTISSLTFFDDYMNKSFLPKIQMTMDYLFTVEVESNNPYALELSDENHNIFKTALDFQRLFYNLLNVFNTANTFREKISYCILDLLNHFYNYYLGLFNSLIGTSDRHLTRKIITAWLQNGILMDQEQKILNGDETLFHEESIELFKEIPHFYQAGKGLSKSDLFNNLTLDTILQFSASVLWILNWLPGLKKAINIDEVSQEPMLDADRLRSSWTFSESMDLNYSNPSSSPNSLGNLKILLDDKASKKFDETIDGFKTLKFKLITILRFNIRALCIYDIGSFFQNTKIWNMDVGSIELDQNIASLISELRRTESKLKQQLPEKEKNSIFIGLDIVNNYALIKGAKSIKVLNHNGIKKMLRNVNVLQHAYRNLSSEPSKINMNVTMNFYSLCGSSEAELFEYIKDNELPHCSVEDLKTILRLQFSEEMHRQLKRQSTSSTKGSIKPSNKRYTEALEKLSNLEKEQSKEGARTKIGKLKSKLNAVHTANEK | binds
5 | Sec6-GFP (protein, UniProt P32844 1-805) MSSDPLQQVCDLIKGDLSLERVRDIKEQLLKEKSVVEYQLNKESDKYYGEVEESLKLLNLSKNSVTSIKQQINEVNKLGNDNRFAINRYDILFRATKLYETVNTTSSIYDRIYNFVALMEHIERLLVAELAEDALETGCPHLLEIHFLLTSARDFQEQVVVMAKEATEDAQRTVMKLFSRLSGIISKFDKLLDGLTYDIVEMARAEQISLAIRLFKIYDLEEREDLRIEAIRNIIKKKEIEIEKSSIKKLPNSKNTARLQDETPKVIEYPTNKGLYQEIMSGTISTRTAPRGYKHFLINGINNSISEMFGEMREKYVGDQKFDVLDNMDWIFNELIIVKEHIANCCPPHWNIFEVYFDQYYKELHSLITDLVESEPETIIILDILAFDKTFQDTLKQDFGFTKSEVKSVIGDKEKETLFKDYLNLIVVKMTEWIGNLEKAEFDVFLERSTPPHSDSDGLLFLDGTKTCFQMFTQQVEVAAGTNQAKILVGVVERFSDLLTKRQKNWISKISEEIKKQINYNHKYDIDPESITPEDECPGGLVEYLIAVSNDQMKAADYAVAISSKYGKLVSKVYEKQITNHLEGTLDGFAEVAQCSSLGLITLMFDDLRKPYQEIFSKTWYMGSQAQQIADTLDEYLLDIKPQMNSVLFVNFIDNVIGETIIKFLTALSFEHSFKNKNNKFLEAMKRDFEIFYQLFVKVLDGNESKDTLITQNFTVMEFFMDLSCEPIDSILDIWQKYLEVYWDSRIDLLVGILKCRKDVSSSERKKIVQQATEMLHEYRRNMEANGVDREPTLMRRFVLEFEKQ | binds

More lines, now with the values ahead:

Row | binding | Molecule
6 | binds | Sec15-GFP (protein, UniProt P22224 1-910) MDQEGQPLLSKDFQQVLLATASGNNSSWTERAVLNNESTDAVKHEPALGQNDVFDLDPLSFDKWVPFLRRALDKNQLDPVIDELENSIEDNFQGLELQLLQDSQMNDKLETSIDEIANIQGMVQDTLSSEISKFQIRLSESANELIVKKQMYVNNKKISLKISEATILITKVVRILELSSKCQELITERKFFKVLQNLDSLEKLYLQEFKNYNFQFLIEIYNSIPFLQKVTKDECINLIRNSLNLNLGKNLIKVGQEFVAIYENELLPQWLETRSKMKLTNFKFNSPIEISMRDESFLAKLNLGEFFQLDDFHDSIMIFQNLNELSVLSGEFNKEYELRKTKLMYPLIWKKNKTAAYQMDSLLRGTGTTPGSTAHDVSTDDPFTQSLSLHFLQDYFLKILGFLLYDINLNKATEFILVDNNYNSTNEFWDGLMDRLSPYLSYFIDEKLKTEEDMIKLKDFLCIYVAILENFKLNIEPLYKILVSIFEKFCSVSLRAFDDEFQILLNDDDFMPLSINDKTLYEKVLKICWMKEGEHLSLPDPTNGEPFAVTLPFSPLYPMTCTLAKKTYSKITAFLSIFYRHELHTLNNILVKTMDDIFNDIVNKKIRSKLESTSREEIAQILVNLDYFIIAAKEFSNFMTRENILQNPDMEIRLSSIKYLAESRKLAETKLIELIDSKISDILETIEIDWQITEVRQDPDISIIDLAQFLEMMFASTLQNLPYSVQTLLIFREFDSLTRQFMGLLLHDTPSTITHESIMNFEVDVNYLESIIPRIFPSTPGTIDSNGYQSPMTPSTPTFPNANGVDAPTLFENNIKSLEATFMELKQCIELLKTQGKDYNEPEIRLRKYSRIRQEDAALLLSKIQHFVSSVEGANGDDTSVMDSSSIFNSESASVIDSNTSRIAKFFNRR
7 | no binding | YLR096W (protein, UniProt P13186 1-1147) MPNPNTADYLVNPNFRTSKGGSLSPTPEAFNDTRVAAPATLRMMGKQSGPRNDQQQAPLMPPADIKQGKEQAAQRQNDASRPNGAVELRQFHRRSLGDWEFLETVGAGSMGKVKLVKHRQTKEICVIKIVNRASKAYLHKQHSLPSPKNESEILERQKRLEKEIARDKRTVREASLGQILYHPHICRLFEMCTMSNHFYMLFEYVSGGQLLDYIIQHGSLKEHHARKFARGIASALQYLHANNIVHRDLKIENIMISSSGEIKIIDFGLSNIFDYRKQLHTFCGSLYFAAPELLKAQPYTGPEVDIWSFGIVLYVLVCGKVPFDDENSSILHEKIKKGKVDYPSHLSIEVISLLTRMIVVDPLRRATLKNVVEHPWMNRGYDFKAPSYVPNRVPLTPEMIDSQVLKEMYRLEFIDDIEDTRRSLIRLVTEKEYIQLSQEYWDKLSNAKGLSSSLNNNYLNSTAQQTLIQNHITSNPSQSGYNEPDSNFEDPTLAYHPLLSIYHLVSEMVARKLAKLQRRQALALQAQAQQRQQQQQVALGTKVALNNNSPDIMTKMRSPQKEVVPNPGIFQVPAIGTSGTSNNTNTSNKPPLHVMVPPKLTIPEQAHTSPTSRKSSDIHTELNGVLKSTPVPVSGEYQQRSASPVVGEHQEKNTIGGIFRRISQSGQSQHPTRQQEPLPEREPPTYMSKSNEISIKVPKSHSRTISDYIPSARRYPSYVPNSVDVKQKPAKNTTIAPPIRSVSQKQNSDLPALPQNAELIVQKQRQKLLQENLDKLQINDNDNNNVNAVVDGINNDNSDHYLSVPKGRKLHPSARAKSVGHARRESLKFTRPPIPAALPPSDMTNDNGFLGEANKERYNPVSSNFSTVPEDSTTYSNDTNNRLTSVYSQELTEKQILEEASKAPPGSMPSIDYPKSMFLKGFFSVQTTSSKPLPIVRHNIISVLTRMNIDFKEVKGGFICVQQRPSIETAAVPVITTTGVGLDSGKAMDLQNSLDSQLSSSYHSTASSASRNSSIKRQGSYKRGQNNIPLTPLATNTHQRNSSIPMSPNYGNQSNGTSGELSSMSLDYVQQQDDILTTSRAQNINNVNGQTEQTNTSGIKERPPIKFEIHIVKVRIVGLAGVHFKKVSGNTWLYKELASYILKELNL
8 | no binding | YAR019C (protein, UniProt P27636 1-974) MNSMADTDRVNLTPIQRASEKSVQYHLKQVIGRGSYGVVYKAINKHTDQVVAIKEVVYENDEELNDIMAEISLLKNLNHNNIVKYHGFIRKSYELYILLEYCANGSLRRLISRSSTGLSENESKTYVTQTLLGLKYLHGEGVIHRDIKAANILLSADNTVKLADFGVSTIVNSSALTLAGTLNWMAPEILGNRGASTLSDIWSLGATVVEMLTKNPPYHNLTDANIYYAVENDTYYPPSSFSEPLKDFLSKCFVKNMYKRPTADQLLKHVWINSTENVKVDKLNKFKEDFTDADYHWDADFQEEKLNISPSKFSLAAAPAAWAENNQELDLMPPTESQLLSQLKSSSKPLTDLHVLFSVCSLENIADTIIECLSRTTVDKRLITAFGSIFVYDTQHNHSRLRLKFIAMGGIPLIIKFEHLAKEFVIDYPQTLIECGIMYPPNFASLKTPKYILELVYRFYDLTSTAFWCRWCFKHLDISLLLNNIHERRAQSILLKLSSYAPWSFEKILPSLIDSKLKKKILISPQITYVVFKSINYMITTNDDKIHKSAIPSSSSLPLSSSPTRNSPVNSVQSPSRSPVHSLMATRPSSPMRHKSISNFPHLTISSKSRLLIELPEGFFTWLTSFFVDMAQIKDLSVLKYFTKLCYLTVHINSTFLNDLLDNDAFFAFIRNIDTIIPFIDDAKTAAFIWKQITAICVEMSLDMDQMSASLFSTAMNFIRKKNNTSISGLEIILNCLHFTLRNVNDDVAPTVGSSESHSVFLIKVNNDAAIELPIDQLVDLFYALNDDDVNLSKLISIFTKICSLPGFENLTINIIFHPNFYEKIVSFFDTYFNSLLIQIDLLKFIKLIFSKSLLKLYDYTGQPDPIKQTEPNRRNKATVFKLRAILVQITEFLNNNWNKDVPKRNSNQVGGDSVLICQLCEDIRSLSKKGSLQKVSSVTAAIGSSPTKDERSNLRSSKDKSDGFSVPITTFQT
